No constants are given. Whether binding was seen depends on the method and setting. Binding seen in cells or lysates may run through a third protein.
T1: HELLS, endogenous in Xenopus egg extracts (X. laevis (endogenous in Xenopus egg extracts)) (UniProt Q4V835)
T1 sequence: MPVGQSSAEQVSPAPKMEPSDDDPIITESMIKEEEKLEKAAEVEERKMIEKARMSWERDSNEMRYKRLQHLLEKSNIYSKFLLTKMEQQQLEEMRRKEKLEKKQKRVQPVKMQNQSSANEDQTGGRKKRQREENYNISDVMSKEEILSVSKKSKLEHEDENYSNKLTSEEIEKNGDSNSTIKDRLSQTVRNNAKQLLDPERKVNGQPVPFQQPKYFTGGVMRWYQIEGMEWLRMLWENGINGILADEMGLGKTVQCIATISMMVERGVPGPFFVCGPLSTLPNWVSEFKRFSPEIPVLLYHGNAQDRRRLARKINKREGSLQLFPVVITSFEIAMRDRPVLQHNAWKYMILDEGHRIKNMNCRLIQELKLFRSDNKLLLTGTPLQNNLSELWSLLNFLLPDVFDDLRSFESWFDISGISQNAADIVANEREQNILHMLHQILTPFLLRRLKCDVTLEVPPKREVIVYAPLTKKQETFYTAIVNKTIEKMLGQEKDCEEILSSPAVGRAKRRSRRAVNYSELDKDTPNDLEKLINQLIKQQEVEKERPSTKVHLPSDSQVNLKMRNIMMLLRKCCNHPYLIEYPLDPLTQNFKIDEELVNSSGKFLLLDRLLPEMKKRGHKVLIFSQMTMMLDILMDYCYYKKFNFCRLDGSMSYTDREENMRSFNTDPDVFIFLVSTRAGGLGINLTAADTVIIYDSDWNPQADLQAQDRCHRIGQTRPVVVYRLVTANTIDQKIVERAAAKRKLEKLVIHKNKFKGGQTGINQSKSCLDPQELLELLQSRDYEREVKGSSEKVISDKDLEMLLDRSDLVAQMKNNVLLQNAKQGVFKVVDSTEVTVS

T2: UHRF1, endogenous in Xenopus egg extracts (X. laevis (endogenous in Xenopus egg extracts)) (UniProt B6CHA3)
T2 sequence: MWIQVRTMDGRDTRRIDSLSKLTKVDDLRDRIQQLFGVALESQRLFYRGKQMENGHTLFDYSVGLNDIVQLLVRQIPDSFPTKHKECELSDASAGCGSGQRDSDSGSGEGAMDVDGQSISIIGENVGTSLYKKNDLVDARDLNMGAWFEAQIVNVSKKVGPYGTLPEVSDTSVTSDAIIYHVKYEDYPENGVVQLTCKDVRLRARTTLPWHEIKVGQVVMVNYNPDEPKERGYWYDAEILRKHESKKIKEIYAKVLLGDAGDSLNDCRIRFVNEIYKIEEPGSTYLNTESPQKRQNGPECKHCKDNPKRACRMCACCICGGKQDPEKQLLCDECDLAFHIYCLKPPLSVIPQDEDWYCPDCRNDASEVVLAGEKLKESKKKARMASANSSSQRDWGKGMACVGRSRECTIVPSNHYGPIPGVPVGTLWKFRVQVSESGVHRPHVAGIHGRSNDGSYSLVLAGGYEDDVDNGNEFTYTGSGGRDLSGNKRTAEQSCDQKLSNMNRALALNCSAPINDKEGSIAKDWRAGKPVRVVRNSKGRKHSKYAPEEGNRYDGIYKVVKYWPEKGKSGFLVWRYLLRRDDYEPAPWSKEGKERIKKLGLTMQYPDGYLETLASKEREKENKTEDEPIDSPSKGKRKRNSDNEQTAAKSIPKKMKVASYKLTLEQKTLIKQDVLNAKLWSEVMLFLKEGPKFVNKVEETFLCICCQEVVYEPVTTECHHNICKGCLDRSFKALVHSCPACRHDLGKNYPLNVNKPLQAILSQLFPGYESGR


Key:
[1] = biological target: T1, HELLS, endogenous in Xenopus egg extracts (X. laevis (endogenous in Xenopus egg extracts)); assay: co-IP; anti-HELLS antibody (12.5 ug) on Protein A Dynabeads; Xenopus egg extract (25 ul) with 2 ul 35S-labeled UHRF1 and 2 ul 35S-labeled CDCA7 TnT lysates; on ice 1 hour; autoradiography (fig. S2D)
[2] = biological target: T2, UHRF1, endogenous in Xenopus egg extracts (X. laevis (endogenous in Xenopus egg extracts)); assay: co-IP; anti-UHRF1 serum (85 ul) on Protein A Dynabeads; Xenopus egg extract (25 ul) with 3.5 ul 35S-labeled HELLS and 0.5 ul 35S-labeled UHRF1 TnT lysates; on ice 1 hour; autoradiography (fig. S2E)

binding [1] | binding [2] | Binder
no binding |  | UHRF1, 35S-labeled (protein, UniProt B6CHA3 1-772, 35S-labelled methionine) MWIQVRTMDGRDTRRIDSLSKLTKVDDLRDRIQQLFGVALESQRLFYRGKQMENGHTLFDYSVGLNDIVQLLVRQIPDSFPTKHKECELSDASAGCGSGQRDSDSGSGEGAMDVDGQSISIIGENVGTSLYKKNDLVDARDLNMGAWFEAQIVNVSKKVGPYGTLPEVSDTSVTSDAIIYHVKYEDYPENGVVQLTCKDVRLRARTTLPWHEIKVGQVVMVNYNPDEPKERGYWYDAEILRKHESKKIKEIYAKVLLGDAGDSLNDCRIRFVNEIYKIEEPGSTYLNTESPQKRQNGPECKHCKDNPKRACRMCACCICGGKQDPEKQLLCDECDLAFHIYCLKPPLSVIPQDEDWYCPDCRNDASEVVLAGEKLKESKKKARMASANSSSQRDWGKGMACVGRSRECTIVPSNHYGPIPGVPVGTLWKFRVQVSESGVHRPHVAGIHGRSNDGSYSLVLAGGYEDDVDNGNEFTYTGSGGRDLSGNKRTAEQSCDQKLSNMNRALALNCSAPINDKEGSIAKDWRAGKPVRVVRNSKGRKHSKYAPEEGNRYDGIYKVVKYWPEKGKSGFLVWRYLLRRDDYEPAPWSKEGKERIKKLGLTMQYPDGYLETLASKEREKENKTEDEPIDSPSKGKRKRNSDNEQTAAKSIPKKMKVASYKLTLEQKTLIKQDVLNAKLWSEVMLFLKEGPKFVNKVEETFLCICCQEVVYEPVTTECHHNICKGCLDRSFKALVHSCPACRHDLGKNYPLNVNKPLQAILSQLFPGYESGR
 | no binding | X. laevis HELLS, wild type, 35S-labeled (protein, UniProt Q4V835 1-838, 35S-labelled methionine) MPVGQSSAEQVSPAPKMEPSDDDPIITESMIKEEEKLEKAAEVEERKMIEKARMSWERDSNEMRYKRLQHLLEKSNIYSKFLLTKMEQQQLEEMRRKEKLEKKQKRVQPVKMQNQSSANEDQTGGRKKRQREENYNISDVMSKEEILSVSKKSKLEHEDENYSNKLTSEEIEKNGDSNSTIKDRLSQTVRNNAKQLLDPERKVNGQPVPFQQPKYFTGGVMRWYQIEGMEWLRMLWENGINGILADEMGLGKTVQCIATISMMVERGVPGPFFVCGPLSTLPNWVSEFKRFSPEIPVLLYHGNAQDRRRLARKINKREGSLQLFPVVITSFEIAMRDRPVLQHNAWKYMILDEGHRIKNMNCRLIQELKLFRSDNKLLLTGTPLQNNLSELWSLLNFLLPDVFDDLRSFESWFDISGISQNAADIVANEREQNILHMLHQILTPFLLRRLKCDVTLEVPPKREVIVYAPLTKKQETFYTAIVNKTIEKMLGQEKDCEEILSSPAVGRAKRRSRRAVNYSELDKDTPNDLEKLINQLIKQQEVEKERPSTKVHLPSDSQVNLKMRNIMMLLRKCCNHPYLIEYPLDPLTQNFKIDEELVNSSGKFLLLDRLLPEMKKRGHKVLIFSQMTMMLDILMDYCYYKKFNFCRLDGSMSYTDREENMRSFNTDPDVFIFLVSTRAGGLGINLTAADTVIIYDSDWNPQADLQAQDRCHRIGQTRPVVVYRLVTANTIDQKIVERAAAKRKLEKLVIHKNKFKGGQTGINQSKSCLDPQELLELLQSRDYEREVKGSSEKVISDKDLEMLLDRSDLVAQMKNNVLLQNAKQGVFKVVDSTEVTVS

From paper PMC11343034, “CDCA7 is an evolutionarily conserved hemimethylated DNA sensor in eukaryotes”
